Paper PMC7819943, “Rice protein-binding microarrays: a tool to detect cis-acting elements near promoter regions in rice”
Some of the results follow.

Sequences of proteins named here, by UniProt entry; tags and fusion partners are left off.
UniProt Q0JBA9, entry or part of it: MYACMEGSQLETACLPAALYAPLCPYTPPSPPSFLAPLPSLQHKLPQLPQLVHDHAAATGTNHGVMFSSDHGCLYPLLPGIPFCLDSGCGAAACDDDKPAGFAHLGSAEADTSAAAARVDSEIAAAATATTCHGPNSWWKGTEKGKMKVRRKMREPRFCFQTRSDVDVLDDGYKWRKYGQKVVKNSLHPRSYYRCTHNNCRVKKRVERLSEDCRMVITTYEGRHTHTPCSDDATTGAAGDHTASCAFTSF

Target: OsWRKY34 (Oryza sativa, UniProt Q0JBA9 1-250)
Test: protein-binding microarray (RPBM); PBS, 2% BSA, 51.3 ng/ul salmon testes DNA, 50 uM zinc acetate, 200 nM TF, 25 C, 1 h; high values mean tight binding
Conditions: protein: recombinant; tags: N-terminal polyhistidine and DsRed monomer fusion (pET32a); label: CyDye5-dUTP incorporated in the synthesized complementary strand; 3' TTTTT single-stranded linker to array surface; dsDNA, one strand shown
Method in brief: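 Transcription factors were each fused at the N-terminus to a polyhistidine tag plus DsRed and expressed in E. coli BL21-CodonPlus before Ni–NTA purification. Binding to a double-stranded custom Agilent array was carried out with 200 nM protein at 25 °C for 1 h in PBS, 2% BSA, salmon testes DNA and 50 µM zinc acetate. The binding signal is per-feature fluorescence intensity, in arbitrary units, on an Axon 4000B scanner.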

Row | Sequence | binding signal
1 | GCCTACTACTACTCTTCTATATCACCTGATAATGCCCAAACGGAGTCACCTAGTGCAG | 8280 fluorescence intensity (a.u.)
2 | GACAAACCTAATACTAACCCGCTCGTGTTCTTTGCTTCTCCGGAGTCACCTAGTGCAG | 8650 fluorescence intensity (a.u.)
3 | ATACACAAAAATAGTTTTTTATTAGCTTTCTTTCATTTTCCGGAGTCACCTAGTGCAG | 8300 fluorescence intensity (a.u.)
4 | ACAGACACAACATTTTTCCTGCCAGCATCATCACACAAGCCGGAGTCACCTAGTGCAG | 9280 fluorescence intensity (a.u.)
5 | CAGGGGTAGAGGCTGCTTTTGGATTTGTACTACACTAAAACGGAGTCACCTAGTGCAG | 9160 fluorescence intensity (a.u.)
6 | AAACAGTTTGACTTTGACTAAAGTTAAAACGTCTTATAACCGGAGTCACCTAGTGCAG | 10900 fluorescence intensity (a.u.)
7 | CCCTTTGCAAAATGTCTACCTAGCCTAACACTTTGACCTGCGGAGTCACCTAGTGCAG | 9810 fluorescence intensity (a.u.)
8 | ATCTACTATTTGCATATCTTATCAGTTGCAGGATCAAACTCGGAGTCACCTAGTGCAG | 8120 fluorescence intensity (a.u.)
9 | AAACTTGACTTTTATTCGAATCACGCGTAACTCCTGACATCGGAGTCACCTAGTGCAG | 9490 fluorescence intensity (a.u.)
10 | AAACAGGACGCTACTACGGCATACACACTTCAGTCACTCGCGGAGTCACCTAGTGCAG | 8230 fluorescence intensity (a.u.)
11 | TTCTTTTGTGCTGTCTTGATATCGATATGATCTGCTTATACGGAGTCACCTAGTGCAG | 8900 fluorescence intensity (a.u.)
12 | GAAAGAAATCTCGCTCTCGCCTCCTCGCCACCGTTCTCCGCGGAGTCACCTAGTGCAG | 8620 fluorescence intensity (a.u.)
13 | AAATAGTTGCCGGCTCACACCCTCTGTCCTCTTCAGCTCACGGAGTCACCTAGTGCAG | 9240 fluorescence intensity (a.u.)
14 | ACACCTATCTTGTTCTTATTATACTCCCTCCGTTTCAAAACGGAGTCACCTAGTGCAG | 11400 fluorescence intensity (a.u.)
15 | CTAGTTTGATTTTGTCCTGGTTTGGTCGTTGATGGTGAACCGGAGTCACCTAGTGCAG | 9400 fluorescence intensity (a.u.)
16 | AGGATATATTTCTCTTTATTTTCATACTTGAACCATCTGTCGGAGTCACCTAGTGCAG | 8980 fluorescence intensity (a.u.)
17 | GAGGTGGTGTCGGGGAGGTTGGGAGGTGCAGGATGCATGCCGGAGTCACCTAGTGCAG | 13700 fluorescence intensity (a.u.)
18 | CGCCAACCTGTCCTGTTCTGCCGTCCTGCTCCGCTGGCCCCGGAGTCACCTAGTGCAG | 11800 fluorescence intensity (a.u.)
19 | CAATCTTGACGGATAGCTCGATCGCGTCGCTTGTTTACTTCGGAGTCACCTAGTGCAG | 11700 fluorescence intensity (a.u.)
20 | GCATACACATCAGCCACCAGATTTGTTCCATCTCTCTTCCCGGAGTCACCTAGTGCAG | 8630 fluorescence intensity (a.u.)
21 | CACTTGACTGGCTGATGCTATTGGCCTCTGTTATATTTTCCGGAGTCACCTAGTGCAG | 9300 fluorescence intensity (a.u.)

Row | Sequence | binding signal
22 | CCCCTCACTCCTCCGATCCTTTCCCACTGCGCGCCACTCACGGAGTCACCTAGTGCAG | 10700 fluorescence intensity (a.u.)
23 | ATTTTTTTATTCGTGTCCGAAACCCCTTCCGACATCCTGTCGGAGTCACCTAGTGCAG | 8900 fluorescence intensity (a.u.)
24 | ATATTTGTGTTCATTCATTAGGTCTATTCGTTATTTTTGCCGGAGTCACCTAGTGCAG | 9640 fluorescence intensity (a.u.)
25 | AGCGAGTATATTCTAGCTAGCTGCAACTCTCTCTCTCTCTCGGAGTCACCTAGTGCAG | 8490 fluorescence intensity (a.u.)
26 | GGGACTCCTAGGCTTTGTGTCTGTTACTTCTTTTCTACTGCGGAGTCACCTAGTGCAG | 14200 fluorescence intensity (a.u.)
27 | CAATGCCGTCTCTGCCCCACCGGCATCTTGATCGATCCTGCGGAGTCACCTAGTGCAG | 9050 fluorescence intensity (a.u.)
28 | TCGTAGTTGTGTTAGTGGCTAGGGTTTTGGCCTGTGTGTGCGGAGTCACCTAGTGCAG | 8120 fluorescence intensity (a.u.)
29 | TTCTTATAGCCCAAGCCATCCTCATCTCCTTCCTTGCTGCCGGAGTCACCTAGTGCAG | 11700 fluorescence intensity (a.u.)
30 | TCCCAATTATTGGACCTCGACCGCTCCTAAATCCCCTGCCCGGAGTCACCTAGTGCAG | 8040 fluorescence intensity (a.u.)
31 | GGAGTGTTGCTTGGGCTGTCGCGGTCGGGCCGGCCCAGGACGGAGTCACCTAGTGCAG | 8320 fluorescence intensity (a.u.)
32 | TCTTTTCTCTCTCCTTTCCATGGCCGGCTATCACTGTCGTCGGAGTCACCTAGTGCAG | 8270 fluorescence intensity (a.u.)
33 | CACGGCTCCATCTGCTCAAGCACCACCAGCCTCGCCGGCACGGAGTCACCTAGTGCAG | 9990 fluorescence intensity (a.u.)
34 | GATCCCATGCAAAGTCGCTTTTTTTCTCAGCTGAATTGAACGGAGTCACCTAGTGCAG | 10100 fluorescence intensity (a.u.)
35 | GCTAAGCTCCGCCTCGTCTTCCGCCCACGCTGCTCTGCTCCGGAGTCACCTAGTGCAG | 9150 fluorescence intensity (a.u.)
36 | CCGTCCATCTGTTCGCTTTGTCCTCTTGCAATCATTCACTCGGAGTCACCTAGTGCAG | 14400 fluorescence intensity (a.u.)
37 | GCACCTCAGTCCTGTCCCAACCATCAAATTCGTCTTGATCCGGAGTCACCTAGTGCAG | 8560 fluorescence intensity (a.u.)
38 | CTGTTACTTGCATCCGAACAAGCCCATTTATATCTCACGTCGGAGTCACCTAGTGCAG | 11200 fluorescence intensity (a.u.)
39 | GCTTATACTGTTATAACTCTTTTGGAACAGAATTTTCGAACGGAGTCACCTAGTGCAG | 8660 fluorescence intensity (a.u.)
40 | TCTGAATCAATCACACTCCTTGCACAATGCCTTCACTGTCCGGAGTCACCTAGTGCAG | 9660 fluorescence intensity (a.u.)
41 | CGTATCTTTTCGCCCATCGTCATAACGCGCGGTATACGTACGGAGTCACCTAGTGCAG | 8400 fluorescence intensity (a.u.)
42 | ATGATGTGCTTTCTATCTCTAATCTCCTAGGCTGTGTTTACGGAGTCACCTAGTGCAG | 11900 fluorescence intensity (a.u.)

Individual results from the entries so far:
TCCCAATTATTGGACCTCGACCGCTCCTAAATCCCCTGCCCGGAGTCACCTAGTGCAG | binding signal: 8040 fluorescence intensity (a.u.)
ATGATGTGCTTTCTATCTCTAATCTCCTAGGCTGTGTTTACGGAGTCACCTAGTGCAG | binding signal: 11900 fluorescence intensity (a.u.)
GCTAAGCTCCGCCTCGTCTTCCGCCCACGCTGCTCTGCTCCGGAGTCACCTAGTGCAG | binding signal: 9150 fluorescence intensity (a.u.)
